Measured values taken from publication PMC11162468.
No constants are given. Whether binding was seen depends on the method and setting. In cells and extracts the contact can be indirect. Binding calls can cover weak binding; strength is not graded here.

The chains behind the UniProt entries cited, without tags or fusion partners. Where a name states a change or a piece, a line headed by the entry shows the natural chain unless it says otherwise. Residues count along the entry.
UniProt P06213, residues 28-1382: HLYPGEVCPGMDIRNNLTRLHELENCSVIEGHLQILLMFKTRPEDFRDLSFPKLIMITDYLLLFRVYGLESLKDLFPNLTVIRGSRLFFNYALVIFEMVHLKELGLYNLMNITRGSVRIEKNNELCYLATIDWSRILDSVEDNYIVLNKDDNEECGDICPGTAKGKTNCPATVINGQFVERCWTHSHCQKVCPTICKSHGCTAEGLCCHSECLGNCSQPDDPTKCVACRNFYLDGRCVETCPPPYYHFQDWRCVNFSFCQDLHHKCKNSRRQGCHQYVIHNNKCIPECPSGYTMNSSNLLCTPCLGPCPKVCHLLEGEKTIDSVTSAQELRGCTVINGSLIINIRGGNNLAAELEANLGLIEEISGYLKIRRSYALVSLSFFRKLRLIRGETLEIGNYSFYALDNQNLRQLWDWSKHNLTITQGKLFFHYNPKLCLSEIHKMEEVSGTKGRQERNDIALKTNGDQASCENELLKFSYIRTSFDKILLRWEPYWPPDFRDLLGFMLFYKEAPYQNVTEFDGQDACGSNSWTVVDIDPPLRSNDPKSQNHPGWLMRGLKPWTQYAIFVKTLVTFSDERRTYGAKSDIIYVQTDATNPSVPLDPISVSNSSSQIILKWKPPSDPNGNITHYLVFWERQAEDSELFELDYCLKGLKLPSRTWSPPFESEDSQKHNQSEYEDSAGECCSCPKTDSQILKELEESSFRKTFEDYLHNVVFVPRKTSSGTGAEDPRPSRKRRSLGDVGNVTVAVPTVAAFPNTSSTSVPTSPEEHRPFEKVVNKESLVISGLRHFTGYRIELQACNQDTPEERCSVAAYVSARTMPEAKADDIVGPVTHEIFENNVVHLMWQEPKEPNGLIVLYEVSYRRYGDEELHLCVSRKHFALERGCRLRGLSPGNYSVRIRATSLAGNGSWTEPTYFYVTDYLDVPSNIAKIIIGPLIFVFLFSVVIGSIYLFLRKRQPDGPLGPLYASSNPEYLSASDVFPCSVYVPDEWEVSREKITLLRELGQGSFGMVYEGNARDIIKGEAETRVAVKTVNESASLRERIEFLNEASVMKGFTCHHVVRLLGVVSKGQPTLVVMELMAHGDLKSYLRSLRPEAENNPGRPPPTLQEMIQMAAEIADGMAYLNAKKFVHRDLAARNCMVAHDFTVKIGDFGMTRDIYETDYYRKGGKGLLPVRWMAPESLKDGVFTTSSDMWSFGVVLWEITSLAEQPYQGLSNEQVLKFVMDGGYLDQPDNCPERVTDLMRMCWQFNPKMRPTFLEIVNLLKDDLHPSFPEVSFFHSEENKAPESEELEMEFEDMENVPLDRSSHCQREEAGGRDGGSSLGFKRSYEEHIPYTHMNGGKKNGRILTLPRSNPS
UniProt P06748: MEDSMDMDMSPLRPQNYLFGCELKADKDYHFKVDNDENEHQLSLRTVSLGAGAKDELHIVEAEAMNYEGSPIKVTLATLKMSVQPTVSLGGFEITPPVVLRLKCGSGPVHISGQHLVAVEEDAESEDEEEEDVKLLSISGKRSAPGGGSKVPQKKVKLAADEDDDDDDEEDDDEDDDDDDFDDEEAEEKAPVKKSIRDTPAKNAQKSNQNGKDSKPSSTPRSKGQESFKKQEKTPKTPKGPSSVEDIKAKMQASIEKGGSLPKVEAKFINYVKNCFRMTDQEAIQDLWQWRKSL
UniProt Q14974: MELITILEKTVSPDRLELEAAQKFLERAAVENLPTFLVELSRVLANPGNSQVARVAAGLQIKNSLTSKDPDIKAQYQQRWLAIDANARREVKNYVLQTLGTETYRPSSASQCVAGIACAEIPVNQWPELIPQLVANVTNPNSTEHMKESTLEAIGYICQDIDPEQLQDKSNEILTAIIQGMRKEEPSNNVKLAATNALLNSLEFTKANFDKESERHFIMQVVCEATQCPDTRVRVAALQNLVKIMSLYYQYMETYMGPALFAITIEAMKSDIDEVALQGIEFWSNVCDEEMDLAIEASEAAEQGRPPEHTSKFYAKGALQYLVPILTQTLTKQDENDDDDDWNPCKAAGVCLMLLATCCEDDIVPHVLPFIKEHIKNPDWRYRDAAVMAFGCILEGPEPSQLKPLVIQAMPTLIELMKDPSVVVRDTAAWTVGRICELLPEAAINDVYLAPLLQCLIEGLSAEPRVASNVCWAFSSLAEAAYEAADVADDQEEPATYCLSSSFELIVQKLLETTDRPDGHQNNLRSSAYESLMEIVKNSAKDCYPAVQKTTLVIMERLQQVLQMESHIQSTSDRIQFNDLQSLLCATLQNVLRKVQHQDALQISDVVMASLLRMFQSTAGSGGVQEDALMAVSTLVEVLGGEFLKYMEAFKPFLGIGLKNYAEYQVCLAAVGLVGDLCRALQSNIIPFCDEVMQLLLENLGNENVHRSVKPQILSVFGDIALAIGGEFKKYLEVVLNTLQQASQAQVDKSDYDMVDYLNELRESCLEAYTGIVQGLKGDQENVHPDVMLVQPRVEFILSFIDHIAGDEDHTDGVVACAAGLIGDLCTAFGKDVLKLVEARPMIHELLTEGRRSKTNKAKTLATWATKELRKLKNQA

Experiments:
[1] = target: insulin receptor (IR) (human (endogenous in A549 and H226Br)) (UniProt P06213); assay: co-IP; IGF2-stimulated A549 cells; endogenous proteins; association of IR with KPNB1 and KPNA2
[2] = target: NPM1 deletion mutant lacking HBD (ΔHBD) (UniProt P06748); assay: co-IP; H226Br cells expressing FLAG-tagged NPM1 (FL, truncation or deletion mutants), stimulated with IGF2 for 3 h; IP with an anti-FLAG antibody

Substance	binding [1]	binding [2]
importin-1 (karyopherin subunit beta 1; KPNB1) (from UniProt Q14974)	binds	–
insulin receptor (IR) (from UniProt P06213-1 28-1382)	–	binds
